Experimental findings from the supplement of paper PMC12823440, “Inhibitors supercharge kinase turnover through native proteolytic circuits” (Nature, 2025) are described below.

By UniProt entry, the sequences of proteins in these tests, tags left out.
UniProt Q9NYA1, whole entry: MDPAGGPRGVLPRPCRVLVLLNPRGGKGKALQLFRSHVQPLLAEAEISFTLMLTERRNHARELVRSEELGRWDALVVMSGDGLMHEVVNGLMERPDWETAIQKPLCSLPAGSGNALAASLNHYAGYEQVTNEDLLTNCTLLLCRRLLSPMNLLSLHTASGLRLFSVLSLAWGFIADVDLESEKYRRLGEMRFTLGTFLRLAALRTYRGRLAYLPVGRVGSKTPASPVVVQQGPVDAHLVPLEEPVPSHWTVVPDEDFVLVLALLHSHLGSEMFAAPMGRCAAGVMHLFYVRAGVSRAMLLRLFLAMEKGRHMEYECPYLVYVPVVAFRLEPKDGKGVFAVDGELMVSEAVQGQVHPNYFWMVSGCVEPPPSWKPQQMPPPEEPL

Structures can show the parent of a compound that is named as a salt. The list shows a part of the results. Hit calls seldom repeat between salt and free forms of one compound.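 Kinases were expressed as nanoluciferase fusions in K562 cells and luminescence was read every 4 h between 2 and 18 h as percent of control, DMSO set to 100% and a positive control to 0%. A time point counts as decreased when the signal drops significantly (2 sigma). The hit call is the authors' own, does not follow from the count of time points alone, and its rule is not shown.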

One assay has as its target SPHK1 (UniProt Q9NYA1). Briefly: kinase-Nluc reporter destabilization hit call (1 = scored as downregulated) (binary); higher = compound decreases kinase abundance. As to conditions: K562; 2-18 h.
Consider `CCOC(=O)N1C/C(=C/c2ccccc2F)C(=O)/C(=C\c2ccccc2F)C1` (2.5 µM), for which the “kinase-Nluc reporter destabilization hit call” value was inactive: 0.

For the compound `C=CC(=O)Nc1cccc(-c2cccc3cnc(Nc4ccc(N5CCN(CCO)CC5)c(F)c4F)nc23)c1` [Olafertinib] (2.5 µM), the “kinase-Nluc reporter destabilization hit call” value is inactive: 0.

For `COc1cc(N2CCOCC2)ccc1Nc1ncc(Cl)c(Nc2ccccc2NS(C)(=O)=O)n1` (2.5 µM), the “kinase-Nluc reporter destabilization hit call” value was inactive: 0.

Take `Nc1n[nH]c2nc(-c3ccc(NS(=O)(=O)c4cc(Cl)ccc4F)cc3)cnc12` (10 µM): the “kinase-Nluc reporter destabilization hit call” value is active: 1.

`Nc1c(C(=O)NCc2ccc(C(=O)NCCCC3CCCCC3)cc2)cnn1-c1ccccc1` (2.5 µM): the “kinase-Nluc reporter destabilization hit call” value is inactive: 0.

Another assay addresses SRC (UniProt P12931). The assay is described as above. Particulars: K562; 2-18 h.
Turning to `Cc1cc(C)nc(NS(=O)(=O)c2ccc(NC(=S)NC(=O)COc3ccc(Br)cc3Cl)cc2)n1` (2.5 µM), the “kinase-Nluc reporter destabilization hit call” value was inactive: 0.

`Oc1ccc(/C=C/c2cc(O)cc(O)c2)cc1` [Resveratrol] (10 µM): the “kinase-Nluc reporter destabilization hit call” value is inactive: 0.

Regarding `COc1ccc(S(=O)(=O)NCc2ccc(C(=O)NCCc3ccc(Cl)cn3)cc2)cc1` (10 µM), the “kinase-Nluc reporter destabilization hit call” value was inactive: 0.

With `O=c1[nH]c(C2CCCN2)nc2c1oc1ccc(Cl)cc12` (stereo not drawn) [XL413 (hydrochloride)] (10 µM), the “kinase-Nluc reporter destabilization hit call” value was inactive: 0.

For `O=C(NC1CCOCC1)c1ccc(-c2cc(-c3c[nH]nc3-c3ccccn3)ccn2)cc1` (10 µM), the “kinase-Nluc reporter destabilization hit call” value is inactive: 0.

On to `N#Cc1c2nc3ccccc3nc2n2ccc(NC(=O)c3cccs3)cc12` (10 µM), for which the “kinase-Nluc reporter destabilization hit call” value was inactive: 0.

With `COCCNc1cc(NC(=O)N2CCCc3cc(CN4CCN(C)CC4=O)c(C=O)nc32)ncc1C#N` [Roblitinib] (10 µM), the “kinase-Nluc reporter destabilization hit call” value was inactive: 0.

Turning to `CN(C)CCC=C1c2ccccc2CCc2ccccc21` [Amitriptyline (hydrochloride)] (2.5 µM), the “kinase-Nluc reporter destabilization hit call” value was inactive: 0.

Turning to `Cn1cc(C2=C(c3cn(CCCSC(=N)N)c4ccccc34)C(=O)NC2=O)c2ccccc21` [Ro 31-8220 (mesylate)] (2.5 µM), the “kinase-Nluc reporter destabilization hit call” value was inactive: 0.

On to `CC(C)(C)n1nc(Cc2ccccc2O)c2c(N)ncnc21` (10 µM), for which the “kinase-Nluc reporter destabilization hit call” value is inactive: 0.

For the compound `COc1cc2ncnc(Nc3ccc(F)c(Cl)c3)c2cc1NC(=O)/C=C/CN1CCCCC1` [Dacomitinib] (10 µM), the “kinase-Nluc reporter destabilization hit call” value is inactive: 0.

For the compound `C[C@@H]1COCCN1c1nc(-c2cnc(N)cc2C(F)F)nc(N2[C@H](C)COC[C@@H]2C)n1` (2.5 µM), the “kinase-Nluc reporter destabilization hit call” value was inactive: 0.

As for `COc1cc2ncnc(Nc3ccccc3)c2cc1OC` (10 µM), the “kinase-Nluc reporter destabilization hit call” value was inactive: 0.

For the compound `O=C(Nc1nc2ccccc2[nH]1)c1cccc([N+](=O)[O-])c1` [IRAK-4 protein kinase inhibitor 2] (10 µM), the “kinase-Nluc reporter destabilization hit call” value is inactive: 0.

Regarding `Cc1ccc(Oc2nc3cc(-c4ccc(-c5ccccc5)cc4)c(Cl)cc3[nH]2)cc1C(=O)O` (10 µM), the “kinase-Nluc reporter destabilization hit call” value is inactive: 0.

As for `c1ccc(-c2nc3c(c(-n4ccc5cnccc54)n2)CCC3)nc1` (10 µM), the “kinase-Nluc reporter destabilization hit call” value is inactive: 0.

In the case of `Cn1ncc2cc(-c3cnc(N)c(Cl)c3N3CCC4(CCNC4=O)CC3)ccc21` (10 µM), the “kinase-Nluc reporter destabilization hit call” value was inactive: 0.

Turning to `C[C@H](Nc1ncnc2nc[nH]c12)c1cc2cccc(Cl)c2c(=O)n1-c1ccccc1` [Duvelisib] (10 µM), the “kinase-Nluc reporter destabilization hit call” value was inactive: 0.

In the case of `CS(=O)(=O)c1ccc(-c2cnc(N)c(-c3ccc(C(F)(F)F)nc3)c2)cc1` (10 µM), the “kinase-Nluc reporter destabilization hit call” value is inactive: 0.

For `c1cc(NC2CCNCC2)nc(-c2cnc3ccccn23)c1` [IRAK inhibitor 1] (10 µM), the “kinase-Nluc reporter destabilization hit call” value was inactive: 0.

Take `C[C@@H]1CCNC(=O)c2cc3ccc(C(=O)Nc4nc5ccccc5n4CCCN(C)C)cc3n21` (10 µM): the “kinase-Nluc reporter destabilization hit call” value was inactive: 0.

Turning to `Cc1cnc(NC2CCOCC2)nc1-n1cnc(C(=O)N[C@H](CN)c2cc(F)cc(Cl)c2)c1` (10 µM), the “kinase-Nluc reporter destabilization hit call” value was inactive: 0.

`O=C(NCc1cccc(O)c1)Nc1nc(-c2ccncc2)cs1` (10 µM): the “kinase-Nluc reporter destabilization hit call” value was inactive: 0.

Consider `Cc1cc2sc(NC(=O)Cc3ccccc3)nc2cc1Cl` (10 µM), for which the “kinase-Nluc reporter destabilization hit call” value was inactive: 0.

With `COc1cc2ncnc(-n3nc(-c4ccccn4)nc3N)c2cc1OC` (10 µM), the “kinase-Nluc reporter destabilization hit call” value was inactive: 0.

For the compound `O=C(N[C@@H](C1CC1)C(F)(F)F)c1cc(-c2cnn3cc(-c4ccc(F)cc4)cnc23)cs1` (10 µM), the “kinase-Nluc reporter destabilization hit call” value is inactive: 0.

As to `O=C1/C(=C\c2ccc(Cl)cc2)C=C(c2ccccc2)N1c1ccc(O)cc1` (2.5 µM), the “kinase-Nluc reporter destabilization hit call” value was inactive: 0.

`CNC(=O)c1ccccc1Nc1nc(Nc2ccc3c(c2OC)CCC[C@H](N2CCN(CCO)CC2)C3)ncc1Cl` (10 µM): the “kinase-Nluc reporter destabilization hit call” value is inactive: 0.

As to `C=CC(=O)Nc1cccc(CNc2nc(Nc3ccc(N4CCN(C)CC4)cc3OC)ncc2Cl)c1` (10 µM), the “kinase-Nluc reporter destabilization hit call” value was inactive: 0.

As for `CC(C)=CCc1c(-c2ccc(O)cc2O)oc2c3c(cc(O)c2c1=O)OC(C)(C)C=C3` [Morusin] (2.5 µM), the “kinase-Nluc reporter destabilization hit call” value is inactive: 0.

In the case of `CN1CCC(c2ccccc2CC(C)(C)Nc2nc(N3CCOCC3)nc(-n3c(C(F)F)nc4ccccc43)n2)CC1` [Zandelisib] (10 µM), the “kinase-Nluc reporter destabilization hit call” value was inactive: 0.

As for `CC(C)(O)[C@H]1CC[C@H](Nc2ccc3ncc(-c4cccc(C(F)(F)F)c4)n3n2)CC1` (10 µM), the “kinase-Nluc reporter destabilization hit call” value was inactive: 0.

As to `CC(C)c1cc(/C=C(\C#N)C(=O)NCCCc2ccccc2)cc(C(C)C)c1O` (10 µM), the “kinase-Nluc reporter destabilization hit call” value is inactive: 0.

Take `CCOC(=O)N1C/C(=C/c2ccccc2F)C(=O)/C(=C\c2ccccc2F)C1` (2.5 µM): the “kinase-Nluc reporter destabilization hit call” value is inactive: 0.

Regarding `C=CC(=O)Nc1cccc(-c2cccc3cnc(Nc4ccc(N5CCN(CCO)CC5)c(F)c4F)nc23)c1` [Olafertinib] (2.5 µM), the “kinase-Nluc reporter destabilization hit call” value was inactive: 0.

Consider `COc1cc(N2CCOCC2)ccc1Nc1ncc(Cl)c(Nc2ccccc2NS(C)(=O)=O)n1` (2.5 µM), for which the “kinase-Nluc reporter destabilization hit call” value was inactive: 0.

Consider `Nc1n[nH]c2nc(-c3ccc(NS(=O)(=O)c4cc(Cl)ccc4F)cc3)cnc12` (10 µM), for which the “kinase-Nluc reporter destabilization hit call” value was inactive: 0.

In the case of `Nc1c(C(=O)NCc2ccc(C(=O)NCCCC3CCCCC3)cc2)cnn1-c1ccccc1` (2.5 µM), the “kinase-Nluc reporter destabilization hit call” value was inactive: 0.
